This is an account of results in article PMC4643968.

Amino acid sequences for entries named in this document (tags omitted).
UniProt Q48252: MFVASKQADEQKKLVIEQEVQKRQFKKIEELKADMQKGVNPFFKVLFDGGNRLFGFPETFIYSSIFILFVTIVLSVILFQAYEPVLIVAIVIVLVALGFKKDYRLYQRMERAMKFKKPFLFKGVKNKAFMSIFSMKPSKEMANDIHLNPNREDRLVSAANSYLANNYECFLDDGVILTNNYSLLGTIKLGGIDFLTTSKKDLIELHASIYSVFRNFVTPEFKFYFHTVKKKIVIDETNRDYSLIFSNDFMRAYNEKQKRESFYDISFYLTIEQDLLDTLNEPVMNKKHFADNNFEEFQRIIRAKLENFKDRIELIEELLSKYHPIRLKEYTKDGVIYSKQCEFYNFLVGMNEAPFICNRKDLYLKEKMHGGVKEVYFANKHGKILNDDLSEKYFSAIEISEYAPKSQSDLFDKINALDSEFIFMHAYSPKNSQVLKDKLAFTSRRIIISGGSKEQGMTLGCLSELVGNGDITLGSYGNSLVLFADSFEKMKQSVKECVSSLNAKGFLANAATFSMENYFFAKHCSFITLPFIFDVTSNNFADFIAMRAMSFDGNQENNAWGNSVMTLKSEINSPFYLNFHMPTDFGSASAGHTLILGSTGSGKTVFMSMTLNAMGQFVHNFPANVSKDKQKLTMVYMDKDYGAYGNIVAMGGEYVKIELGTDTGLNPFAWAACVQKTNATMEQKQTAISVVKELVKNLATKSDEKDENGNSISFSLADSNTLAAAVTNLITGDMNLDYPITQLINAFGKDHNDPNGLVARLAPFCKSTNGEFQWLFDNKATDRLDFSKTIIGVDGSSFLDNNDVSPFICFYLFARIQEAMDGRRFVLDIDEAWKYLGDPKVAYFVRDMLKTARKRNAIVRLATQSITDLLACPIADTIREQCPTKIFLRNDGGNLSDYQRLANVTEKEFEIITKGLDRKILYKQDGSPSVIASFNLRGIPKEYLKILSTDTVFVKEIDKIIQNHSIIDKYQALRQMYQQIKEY
UniProt B5Z6P9: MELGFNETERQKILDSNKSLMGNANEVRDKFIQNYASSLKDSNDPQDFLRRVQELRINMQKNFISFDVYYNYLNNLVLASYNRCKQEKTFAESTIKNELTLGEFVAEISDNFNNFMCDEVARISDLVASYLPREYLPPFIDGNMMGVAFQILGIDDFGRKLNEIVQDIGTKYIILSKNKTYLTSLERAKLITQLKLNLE

In this assay the target is CagE (HP0544), VirB4 homologue of the Helicobacter pylori Cag-T4SS, endogenous in strain P12 (Helicobacter pylori P12 (endogenous in P12)) (UniProt Q48252). The assay can be described thus: co-IP; Triton X-100 solubilised extracts of Hp P12, P12ΔcagE (negative control) and P12ΔcagE/cagE; pre-cleared with pre-immune serum; anti-CagE, anti-CagV or anti-Cagβ antibody overnight at 4°C, protein-A agarose; lysis buffer 1X PBS pH 7.4, 2 mM EDTA, 2 mM DTT, 1% Triton X-100; Western blot. A general note: A western blot detects proteins with antibodies after separation by electrophoresis.

These are yes or no findings as the source states them, for the method shown. Binding seen in cells or lysates may run through a third protein.

For the substance “CagZ, endogenous in strain P12 (from UniProt B5Z6P9 1-199)”, the binding result is “no binding”.
